Here are results for 61 compounds from PubChem BioAssay AID493014 (National Center for Advancing Translational Sciences (NCATS), 2011).

The nature of this experiment: qHTS Assay to Find Inhibitors of Chronic Active B-Cell Receptor Signaling. The note with it: ABC-DLBCL IkBa-CBG/CBR reporter, luminescence ratio (green luciferase fused to IkBa over red control in TMD8 lymphoma cells), 4 h. An outline of the steps:
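TMD8 human ABC-DLBCL cells with doxycycline-inducible IκBα–green luciferase fusion and unfused red luciferase, in 0.5% FBS medium; compounds up to 46 uM, 4 h at 37C. Green/red luminescence ratio, filter-overlap corrected, fitted to concentration-response curves.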

Setting [1] is: measured here: CBR red luminescence, cell number.
The mark [2] stands for this setting: measured here: IkBa-CBG green luminescence.

Molecules are shown by their SMILES. Some of the results follow. The main result of the screen is listed elsewhere. These columns were measured beside it and carry no call. Compounds called inactive in the main read-out are mostly missing here. Potencies come from curve fits of mixed quality, noted in brackets.

In the case of `O=C(CSc1nc2ccccc2[nH]1)Nc1c(F)cccc1F`, the AC50 under setting [1] was 3.98 µM [falling, partial curve].

On to `COc1cc(NC(=S)NCCN2CCOCC2)cc(OC)c1`, for which the AC50 under setting [1] is 2.06 µM [rising, full curve, poor fit].

As to `CCCC(=O)Nc1nc2ccc(C(=O)OCC)cc2s1`, under setting [1], the AC50 was 20.6 µM [falling, partial curve].

As to `O=C(N/N=C/C=C/c1ccccc1)NC1CCCCC1`, the AC50 under setting [1] is 31.6 µM [falling, single point].

Turning to `CCOC(=O)c1c(C)n(C)c2ccc(OCC(O)Cn3nc(C)c(Br)c3C)cc12` (configuration not stated), the AC50 is 16.4 µM [falling, partial curve, poor fit] under setting [1] and 25.9 µM [rising, partial curve, poor fit] under setting [2].

As to `C=CCNc1sc(C(=O)c2ccccc2)c(N)c1-c1nc2ccccc2s1`, the AC50 under setting [1] was 22.4 µM [falling, single point].

Turning to `O=C1NC(=S)S/C1=C\c1ccc(SCc2ccccc2)o1`, the AC50 under setting [1] was 18.4 µM [rising, single point].

With `CCCCCc1cc(O)c2c(C)cc(=O)oc2c1`, the AC50 under setting [1] was 1.46 µM [rising, partial curve].

As for `S=C(Nc1ccc2cn[nH]c2c1)Nc1ccccc1Cl`, the AC50 under setting [1] was 29.1 µM [falling, single point].

`COc1ccc(NS(=O)(=O)c2cccc(C(=O)N/N=C/c3ccccc3OC)c2)cc1`: the AC50 under setting [1] is 11.6 µM [falling, partial curve, poor fit].

With `Cc1cc(O)cc(O)c1-c1onc(C(F)(F)F)c1-c1cscn1`, under setting [1], the AC50 was 35.5 µM [falling, single point].

Consider `CCCN1CCN(CCCNC(=O)c2cc3c(s2)-c2ccccc2OC3)CC1`, for which, under setting [1], the AC50 is 22.4 µM [falling, single point].

As for `COc1ccc2nc(NC(=O)CN(C)S(=O)(=O)c3cccs3)sc2c1`, the AC50 under setting [1] is 10.3 µM [falling, partial curve].

Take `COc1ccc(NC(=O)Nc2cc(F)ccc2C)cc1`: the AC50 under setting [1] is 14.1 µM [falling, single point].

`CC(C)C1Nc2ccc(C(=O)O)cc2C2C=CCC21` (configuration not stated): the AC50 under setting [1] is 35.5 µM [falling, single point].

Consider `c1ccc(Nc2cccc(Nc3ccccc3)c2)cc1`, for which the half-maximal activity concentration (AC50) under setting [1] is 0.326 µM [rising, full curve, poor fit].

Take `CCC(C)Sc1ccc([C@@H]2[C@H]3C(=O)N(CC)C(=O)[C@H]3[C@]3(C(=O)OC)CCCCN23)cc1` (some centres not stated): the AC50 under setting [1] was 6.51 µM [falling, partial curve, poor fit].

Regarding `CCCNc1ncnc2c1c(-c1ccccc1)cn2-c1ccccc1`, the AC50 under setting [1] is 12.6 µM [rising, single point].

On to `O=C(OCC1O[C@@H](OC(=O)c2cc(O)c(O)c(O)c2)[C@@H](OC(=O)c2cc(O)c(O)c(O)c2)[C@@H](OC(=O)c2cc(O)c(O)c(O)c2)[C@@H]1OC(=O)c1cc(O)c(O)c(O)c1)c1cc(O)c(O)c(O)c1` (some centres not stated), for which the AC50 runs as follows: under setting [1], 29.1 µM [rising, single point]; under setting [2], 20.6 µM [falling, partial curve, poor fit].

Turning to `C=C(Cl)COc1ccc2c(CCC)cc(=O)oc2c1`, the AC50 under setting [1] is 10.3 µM [rising, partial curve, poor fit].

On to `COC(=O)C1=C(CCc2ccccc2)NC(=O)NC1c1ccc(Br)cc1` (configuration not stated), for which the concentration at half-maximal activity (AC50) is, setting by setting: under setting [1], 22.4 µM [falling, single point]; under setting [2], 12.6 µM [rising, partial curve, poor fit].

As for `CCCCCCN1CC(O)=C(c2ccccc2)C1=N`, under setting [1], the AC50 was 5.17 µM [rising, partial curve, poor fit].

With `CC1CCN(C(=O)c2ccc(NC(=O)c3cccs3)cc2)CC1`, the AC50 under setting [1] is 0.794 µM [rising, full curve, poor fit].

Take `CC(NC(=O)c1noc2c1CCCCC2)c1ccccc1` (configuration not stated): under setting [1], the AC50 was 0.651 µM [rising, partial curve].

As to `Cc1ccc(-n2c(-c3ccc(Cl)cc3)n[nH]c2=S)c(C)c1`, the AC50 under setting [1] is 15.8 µM [rising, single point].

Consider `CC1CCN(C(NC(=O)c2ccco2)C(=O)c2ccccc2)CC1` (configuration not stated), for which the AC50 under setting [1] is 1.12 µM [rising, partial curve, poor fit].

Turning to `COc1ccccc1NC(=S)NC(C)=O`, the AC50 under setting [1] is 6.31 µM [falling, partial curve].

For the compound `C[C@]12c3[nH]c4ccc(Cl)cc4c3CCN1C(=O)[C@@H](CC(=O)NCCc1ccccn1)C[C@@H]2C(=O)N1CCCCC1`, the AC50 under setting [1] is 0.326 µM [rising, full curve, poor fit].

As for `Cc1ccc(NC(=O)CCCCCC2NC(=O)NC2C)cc1` (configuration not stated), the AC50 under setting [1] is 9.2 µM [rising, partial curve, poor fit].

For the compound `Cc1ccc(S(=O)(=O)N(C(=O)c2ccncc2)c2ccc(OC(=O)c3ccncc3)c3ccccc23)cc1`, the AC50 under setting [1] was 16.4 µM [falling, partial curve].

As for `O=C(NC(Cc1ccccc1)C(=O)NCCc1ccccn1)c1ccccc1` (configuration not stated), under setting [1], the AC50 is 3.98 µM [rising, full curve, poor fit].

For the compound `COc1ccc(S(=O)(=O)N(CCC#N)Cc2ccco2)cc1OC`, the AC50 under setting [1] was 1.58 µM [rising, partial curve, poor fit].

Turning to `O=C(CN1CCN(Cc2ccc3c(c2)OCO3)CC1)Nc1ccc(F)cc1`, under setting [1], the concentration at half-maximal activity (AC50) was 23.1 µM [falling, partial curve].

In the case of `COc1cc(-c2cc(N3C(=O)Nc4ccccc4N3O)n[nH]2)cc(OC)c1OC`, the AC50 by setting is: under setting [1], 1.84 µM [rising, partial curve, poor fit]; under setting [2], 2.59 µM [falling, partial curve, poor fit].

Consider `O=C(COc1ccc(Cl)cc1)NCc1nnc(SCC(=O)NCC2CCCO2)o1` (configuration not stated), for which the AC50 under setting [1] was 3.16 µM [falling, single point].

Turning to `COc1cccc(N=Cc2c(O)n(-c3cccc(C)n3)c(=O)c3ccccc23)c1`, the AC50 under setting [1] is 3.66 µM [falling, full curve, poor fit].

As for `O=C(Nc1cccc(-c2cn3cccnc3n2)c1)c1ccco1`, under setting [1], the concentration at half-maximal activity (AC50) was 12.6 µM [falling, single point].

For `CCCc1ccc(-c2cc(N)n[nH]2)cc1`, under setting [1], the AC50 was 3.66 µM [rising, partial curve, poor fit].

As to `CC(CC(=O)Nc1cc(S(=O)(=O)N2CCOCC2)ccc1OCC(F)(F)F)c1ccccc1` (configuration not stated), under setting [1], the concentration at half-maximal activity (AC50) is 29.1 µM [rising, partial curve, poor fit].

`Cc1onc(-c2ccccc2Cl)c1C(=O)Nc1ccc(S(=O)(=O)Nc2nccs2)cc1`: under setting [1], the AC50 was 7.94 µM [falling, partial curve, poor fit].

With `COc1cc(C(C(=O)NC2CCCCC2)N(CCN2CCOCC2)C(=O)C2COc3ccccc3O2)cc(OC)c1OC` (configuration not stated), the half-maximal activity concentration (AC50) under setting [1] was 35.5 µM [rising, single point].

For the compound `C/C(=N\NC(=O)c1n[nH]c2c1CCC2)c1cccs1`, the half-maximal activity concentration (AC50) was 12.6 µM [falling, partial curve] under setting [1] and 35.5 µM [falling, single point] under setting [2].

As to `Cc1ccc(-c2nnn(CC(=O)O)n2)cc1`, the AC50 under setting [1] is 0.651 µM [falling, single point].

`CCN1C(=O)S/C(=C/c2cn(C)c3ccccc23)C1=O`: the AC50 under setting [1] is 1.16 µM [rising, partial curve, poor fit].

For `O/N=C/c1cn(-c2ccccc2)nc1-c1ccc2c(c1)OCCO2`, the AC50 under setting [1] is 2.51 µM [rising, partial curve, poor fit].

As to `CCOc1ccc(OCc2ccc(C(=O)NN)o2)cc1`, the AC50 under setting [1] is 5.62 µM [falling, full curve].

For the compound `CC(=O)c1cc2c(cc1NC(=O)CCC1CCCC1)OCO2`, the AC50 under setting [1] was 20.6 µM [rising, partial curve, poor fit].

Turning to `Cn1c(SCC(=O)c2ccc(F)cc2)nnc1-c1ccccc1N`, under setting [1], the half-maximal activity concentration (AC50) is 12.6 µM [falling, partial curve].

In the case of `O=C(Nc1ccccc1)C(=O)Nc1ccccn1`, the AC50 under setting [1] was 0.398 µM [falling, full curve].

With `O=C(OCC(=O)N1CCc2ccccc21)c1ccccn1`, the AC50 under setting [1] was 35.5 µM [falling, single point].

Regarding `CCCCCc1ccc(-c2ccc(/C=C/C(=O)O)cc2)nc1`, under setting [1], the AC50 is 0.82 µM [falling, full curve].

Consider `O=C(NCC1CCCN(C(=O)c2cscn2)C1)c1ccc(-c2ccccc2)cc1` (configuration not stated), for which, under setting [1], the half-maximal activity concentration (AC50) is 12.6 µM [rising, partial curve].

With `COc1cc(C(=O)COC(=O)c2cccs2)cc(OC)c1OC`, under setting [1], the AC50 was 6.51 µM [rising, single point].

For `O=C(N/N=C\c1cc2c(cc1Cl)OCO2)c1cccs1`, the AC50 under setting [1] was 20 µM [falling, partial curve, poor fit].

In the case of `COc1ccc(C(=O)Nc2ccccc2C(=O)Nc2ccc(C(=O)O)cc2)cc1`, the half-maximal activity concentration (AC50) under setting [1] is 11.2 µM [falling, partial curve].

As for `CC1=C(C(=O)Nc2ccc(C(=O)N3CCN(c4cccc(Cl)c4)CC3)cc2)SCCO1`, under setting [1], the AC50 is 6.31 µM [falling, partial curve, poor fit].

Turning to `COc1ccc(NS(=O)(=O)c2cc(N=Nc3c(O)[nH]c(=O)[nH]c3=O)ccc2Cl)cc1`, the AC50 under setting [1] was 6.51 µM [rising, partial curve, poor fit].

For the compound `Cc1nsc2nc3c(F)c(F)c(F)c(F)c3cc12`, the AC50 runs as follows: under setting [1], 35.5 µM [falling, single point]; under setting [2], 11.2 µM [rising, partial curve, poor fit].

As for `CN(C)S(=O)(=O)c1ccc(Cl)c(NC(=O)COC(=O)CCC(=O)c2cccs2)c1`, the half-maximal activity concentration (AC50) under setting [1] was 0.562 µM [rising, full curve, poor fit].

As for `COc1cccc(-c2csc(N3CCN(C(=O)NC45CC6CC(CC(C6)C4)C5)CC3)n2)c1`, the AC50 under setting [1] was 23.1 µM [rising, partial curve, poor fit].

Take `COc1ccccc1NC(=O)CN1CCC(c2nc3ccc(C)cc3[nH]2)CC1`: under setting [1], the AC50 is 3.55 µM [rising, partial curve, poor fit].
